Measurements reported in patent publication US20230089867A1 (Novartis AG, priority 2018, published 2023).

Tests used:
[1] = general procedure: hybrid (solid and solution phase) peptide synthesis; 2-Chloro trityl resin; HATU (TBTU, HCTU or HATU named); HATU/HOAt/2,6-lutidine for cyclisation; details: whole synthesis, scale 1.0 mmol
[2] = general procedure: hybrid (solid and solution phase) peptide synthesis; PS-2-Chlorotrityl chloride resin; HATU (TBTU, HCTU or HATU named); HATU/HOAt/2,6-lutidine for cyclisation; details: cyclisation step

Substance “(6S,9S,14S,17R)-6-((S)-2-aminopropanamido)-17-benzyl-9-(4-chloro benzyl)-2,2,8,14,15-pentamethyl-4,7,11,16-tetraoxo-3-oxa-8,12,15-triazanonadecan-19-oic acid” has an isolated mass [1] of 526 mg and an isolated yield [1] of 74%.
In the case of “tert-butyl 2-((2S,5S,8S,13S,16R)-16-benzyl-1-(4-chloro-2-(4-(2-((dimethylamino)methyl)-1-methyl-1H-imidazol-5-yl)phenoxy)benzyl)-8-(4-chlorobenzyl)-2,7,13,14-tetramethyl-3,6,10,15,18-pentaoxo-1,4,7,11,14-pentaazacyclooctadecan-5-yl)acetate”, the cyclisation yield [2] is reported as 46%.
Work on “(4S,7S,10S,14R,16aS,20aS)-11-(4-chloro-2-(4-(2-((dimethylamino)methyl)-1-methyl-1H-imidazol-5-yl)phenoxy)benzyl)-4-(4-chlorobenzyl)-7-(methoxymethyl)-5,10,16-trimethyl-14-((6-methylpyridin-2-yl)methyl)hexadecahydrobenzo-[l][1,4,7,11,14]pentaazacyclooctadecine-2,6,9,12,15(3H)-pentaone” yielded a cyclisation yield [2] of 31.1%.
“(2S,5S,8S,13S,16R)-16-benzyl-8-(4-chlorobenzyl)-1-(4-ethyl-2-(4-(1-methyl-2-(pyrrolidin-1-ylmethyl)-1H-imidazol-5-yl)phenoxy)benzyl)-5-(methoxymethyl)-2,7,13,14-tetramethyl-1,4,7,11,14-pentaazacyclooctadecane-3,6,10,15,18-pentaone hydrochloride” gave a cyclisation yield ([2]; hydrochloride) of 47%.
